Values quoted from earlier work as cited in patent publication US20230002393A1, “CDK KINASE INHIBITOR” (BEIJING BENICALL BIOTECH CO., LTD., priority 2019, published 2023).
For at least one compound, name, drawing or mass did not settle the structure.

System: 36 protein kinases including other CDK tyrosine/serine and threonine kinases
Details: cited from earlier work

CC(=O)c1c(C)c2cnc(Nc3ccc(N4CCNCC4)cn3)nc2n(C2CCCC2)c1=O [Palbociclib]
activity for 36 protein kinases: inactive
